This series in a line: Fragrance Fidelity Index (FFI), expert graders on fabric swatches.
[1] abbreviates: Conc 50 ppm test material on fabric swatch.
[2] abbreviates: Conc 10 ppm test material on fabric swatch.

Under setting [1], `CCOC(=O)OC1C(C)CCC(C)C1C` (stereo not drawn) [Material 1005] came in with an FFI of 0.5. On to `CC1(C)CCc2ccc(CCC=O)cc21` [Material 261], for which the FFI was found to be 0 under setting [2] and 1.3 under setting [1]. Under setting [1], `CCCCCCCCCCCC(=O)OCC` [Material 391] came in with an FFI of 0.3. With `CC(=O)OCCCCCCC(C)C` [Material 204], the FFI by setting is: under setting [2], 0; under setting [1], 0. `CC(CCO)CCc1ccccc1` (stereo not drawn) [Material 962]: the FFI was 0 under setting [2] and 0.5 under setting [1]. Taken in the same sequence, the figures for `CC1(C)C2CCC3(C2)C1C(=O)CCC3(C)C` (stereo not drawn) [Material 1149] were 0 and 0.8. In turn, `CCCCCCCCCCCCO` [Material 174] registered an FFI under setting [1] of 0.5. In turn, `CCCCCCCCCCCO` [Undecanol] came in with an FFI under setting [1] of 0.8. Turning to `CC(C)(C)C1CCCCC1` [4-tert-butyl cyclohexane], the FFI under setting [2] is 0 and the FFI under setting [1] came out at 0.3. Under setting [1], `C=C1CCC2OC2(C)CCC2C1CC2(C)C` (stereo not drawn) [Material 1148] displayed an FFI of 0.5. `O=C1CCC2CCCCC2O1` (stereo not drawn) [3,4,4a,5,6,7,8,8a-octahydrochromen-2-one]: the FFI is, setting by setting: under setting [2], 0; under setting [1], 0. With `CCC(O)COC1CCCCC1C(C)(C)C` (stereo not drawn) [Material 677], the FFI is, setting by setting: under setting [2], 0; under setting [1], 1.8. Taken in the same sequence, the figures for `COC(=O)OC1CC/C=C\CCC1` (stereo not drawn) [Material 1139] were 0 and 1.0. Take `C=CC(C)=CCC=C(C)C` [Material 524]: the FFI under setting [1] was found to be 0. As to `CC(=O)OC1CC2CC1C1CC=CC21` (stereo not drawn) [Material 281], the FFI runs as follows: under setting [2], 0; under setting [1], 0.5.

The values above are taken from patent US20170107462A1, “ARRAY OF FABRIC TREATMENT PRODUCTS” (The Procter & Gamble Company, priority 2015, published 2017).
